# Laboratory results as given in the supplement of paper PMC6411743.
# By UniProt entry, the sequences of proteins in these tests, tags left out. Where a name states a change or a piece, a line headed by the entry shows the natural chain unless it says otherwise.
# UniProt P61077: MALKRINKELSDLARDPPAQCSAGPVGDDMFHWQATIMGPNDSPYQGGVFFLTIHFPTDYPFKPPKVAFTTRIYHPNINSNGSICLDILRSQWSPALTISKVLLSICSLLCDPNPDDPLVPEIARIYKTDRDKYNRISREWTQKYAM
# UniProt O94761: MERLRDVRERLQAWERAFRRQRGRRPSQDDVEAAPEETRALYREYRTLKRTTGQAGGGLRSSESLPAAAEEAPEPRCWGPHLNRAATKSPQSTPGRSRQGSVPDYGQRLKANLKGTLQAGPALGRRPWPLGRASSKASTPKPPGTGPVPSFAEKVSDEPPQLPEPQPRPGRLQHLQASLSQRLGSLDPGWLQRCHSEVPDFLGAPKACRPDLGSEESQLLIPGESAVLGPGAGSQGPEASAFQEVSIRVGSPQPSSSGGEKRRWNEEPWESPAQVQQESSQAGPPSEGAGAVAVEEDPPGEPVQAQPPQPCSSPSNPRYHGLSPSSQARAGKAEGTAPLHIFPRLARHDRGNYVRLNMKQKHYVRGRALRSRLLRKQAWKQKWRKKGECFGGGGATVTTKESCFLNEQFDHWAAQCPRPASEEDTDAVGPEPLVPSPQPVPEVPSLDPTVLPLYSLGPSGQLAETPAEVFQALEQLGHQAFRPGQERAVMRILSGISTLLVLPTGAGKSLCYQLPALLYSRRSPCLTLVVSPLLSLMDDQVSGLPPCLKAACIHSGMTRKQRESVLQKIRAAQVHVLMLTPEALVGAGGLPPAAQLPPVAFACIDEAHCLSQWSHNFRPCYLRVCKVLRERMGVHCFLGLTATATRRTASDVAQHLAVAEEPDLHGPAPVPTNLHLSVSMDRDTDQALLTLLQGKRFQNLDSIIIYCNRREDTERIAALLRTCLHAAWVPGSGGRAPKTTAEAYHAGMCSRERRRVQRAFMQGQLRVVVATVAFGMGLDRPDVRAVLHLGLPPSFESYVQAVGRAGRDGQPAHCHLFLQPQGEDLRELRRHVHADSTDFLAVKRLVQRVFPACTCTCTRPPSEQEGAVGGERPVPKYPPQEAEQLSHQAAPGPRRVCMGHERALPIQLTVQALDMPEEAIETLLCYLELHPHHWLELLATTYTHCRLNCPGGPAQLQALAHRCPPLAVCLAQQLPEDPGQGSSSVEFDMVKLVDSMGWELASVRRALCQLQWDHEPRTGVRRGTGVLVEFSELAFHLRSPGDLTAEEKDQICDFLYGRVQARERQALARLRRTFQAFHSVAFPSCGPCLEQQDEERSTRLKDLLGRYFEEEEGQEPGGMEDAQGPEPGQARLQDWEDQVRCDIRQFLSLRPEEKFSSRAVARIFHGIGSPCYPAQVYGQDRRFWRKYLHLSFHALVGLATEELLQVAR
# UniProt Q13555: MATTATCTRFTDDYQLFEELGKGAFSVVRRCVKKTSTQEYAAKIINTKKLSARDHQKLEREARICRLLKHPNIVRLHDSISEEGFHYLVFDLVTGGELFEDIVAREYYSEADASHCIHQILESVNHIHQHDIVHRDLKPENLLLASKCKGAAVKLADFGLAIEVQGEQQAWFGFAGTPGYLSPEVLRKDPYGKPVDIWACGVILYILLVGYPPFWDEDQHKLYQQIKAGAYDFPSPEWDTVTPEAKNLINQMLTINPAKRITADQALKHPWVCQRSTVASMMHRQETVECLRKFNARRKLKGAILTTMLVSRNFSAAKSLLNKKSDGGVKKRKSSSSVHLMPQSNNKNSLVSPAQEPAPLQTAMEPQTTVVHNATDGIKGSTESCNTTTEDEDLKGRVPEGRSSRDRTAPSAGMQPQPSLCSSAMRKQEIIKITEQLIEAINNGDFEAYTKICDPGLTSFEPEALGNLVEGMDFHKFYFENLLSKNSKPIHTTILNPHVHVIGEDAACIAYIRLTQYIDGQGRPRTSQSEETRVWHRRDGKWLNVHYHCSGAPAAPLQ
# UniProt O14981: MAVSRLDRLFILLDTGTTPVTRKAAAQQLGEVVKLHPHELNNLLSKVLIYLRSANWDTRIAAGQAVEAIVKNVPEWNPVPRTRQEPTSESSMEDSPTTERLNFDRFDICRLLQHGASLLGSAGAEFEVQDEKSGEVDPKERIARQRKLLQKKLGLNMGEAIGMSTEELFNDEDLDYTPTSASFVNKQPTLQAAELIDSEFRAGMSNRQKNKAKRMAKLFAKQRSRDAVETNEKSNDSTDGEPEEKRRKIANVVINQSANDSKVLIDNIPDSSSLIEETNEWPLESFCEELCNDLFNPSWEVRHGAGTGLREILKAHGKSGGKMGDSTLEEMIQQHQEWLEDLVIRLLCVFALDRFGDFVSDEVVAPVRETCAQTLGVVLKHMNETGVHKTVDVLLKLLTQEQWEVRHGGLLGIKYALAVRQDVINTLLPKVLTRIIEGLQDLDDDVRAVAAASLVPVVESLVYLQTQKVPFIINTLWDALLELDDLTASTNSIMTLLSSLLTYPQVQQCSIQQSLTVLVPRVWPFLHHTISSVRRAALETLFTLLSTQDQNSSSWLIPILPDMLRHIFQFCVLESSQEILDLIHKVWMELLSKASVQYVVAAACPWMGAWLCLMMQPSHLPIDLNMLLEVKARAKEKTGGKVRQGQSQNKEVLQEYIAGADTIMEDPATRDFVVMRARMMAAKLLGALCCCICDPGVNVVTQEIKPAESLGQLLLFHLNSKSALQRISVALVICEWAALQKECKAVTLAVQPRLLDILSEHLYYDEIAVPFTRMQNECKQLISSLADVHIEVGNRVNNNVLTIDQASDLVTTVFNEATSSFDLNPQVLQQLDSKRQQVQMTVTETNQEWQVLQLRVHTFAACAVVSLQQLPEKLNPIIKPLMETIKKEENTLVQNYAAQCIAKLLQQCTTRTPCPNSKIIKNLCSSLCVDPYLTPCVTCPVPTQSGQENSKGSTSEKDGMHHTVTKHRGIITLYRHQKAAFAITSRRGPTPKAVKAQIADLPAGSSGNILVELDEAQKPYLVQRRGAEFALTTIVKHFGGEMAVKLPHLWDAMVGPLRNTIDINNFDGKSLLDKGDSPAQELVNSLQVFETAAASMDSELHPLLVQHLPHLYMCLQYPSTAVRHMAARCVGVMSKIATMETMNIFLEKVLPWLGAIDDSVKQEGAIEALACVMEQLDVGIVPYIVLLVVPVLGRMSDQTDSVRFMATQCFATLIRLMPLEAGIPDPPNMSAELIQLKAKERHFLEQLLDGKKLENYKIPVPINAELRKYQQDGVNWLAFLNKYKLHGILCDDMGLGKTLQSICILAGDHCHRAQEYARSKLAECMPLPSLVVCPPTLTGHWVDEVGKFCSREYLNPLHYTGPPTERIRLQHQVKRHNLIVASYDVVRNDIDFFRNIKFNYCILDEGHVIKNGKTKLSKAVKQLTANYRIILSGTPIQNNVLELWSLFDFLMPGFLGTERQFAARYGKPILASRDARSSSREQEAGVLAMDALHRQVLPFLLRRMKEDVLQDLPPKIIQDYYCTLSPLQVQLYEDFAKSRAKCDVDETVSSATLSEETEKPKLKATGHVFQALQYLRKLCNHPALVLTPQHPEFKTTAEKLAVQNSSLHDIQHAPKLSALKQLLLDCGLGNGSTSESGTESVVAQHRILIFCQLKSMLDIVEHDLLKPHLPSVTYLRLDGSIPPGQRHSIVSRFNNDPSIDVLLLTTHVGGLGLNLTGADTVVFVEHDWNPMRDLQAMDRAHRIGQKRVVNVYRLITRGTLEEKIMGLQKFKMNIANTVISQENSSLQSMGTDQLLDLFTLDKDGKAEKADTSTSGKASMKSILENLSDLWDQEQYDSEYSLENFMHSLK
# UniProt Q6UXD5: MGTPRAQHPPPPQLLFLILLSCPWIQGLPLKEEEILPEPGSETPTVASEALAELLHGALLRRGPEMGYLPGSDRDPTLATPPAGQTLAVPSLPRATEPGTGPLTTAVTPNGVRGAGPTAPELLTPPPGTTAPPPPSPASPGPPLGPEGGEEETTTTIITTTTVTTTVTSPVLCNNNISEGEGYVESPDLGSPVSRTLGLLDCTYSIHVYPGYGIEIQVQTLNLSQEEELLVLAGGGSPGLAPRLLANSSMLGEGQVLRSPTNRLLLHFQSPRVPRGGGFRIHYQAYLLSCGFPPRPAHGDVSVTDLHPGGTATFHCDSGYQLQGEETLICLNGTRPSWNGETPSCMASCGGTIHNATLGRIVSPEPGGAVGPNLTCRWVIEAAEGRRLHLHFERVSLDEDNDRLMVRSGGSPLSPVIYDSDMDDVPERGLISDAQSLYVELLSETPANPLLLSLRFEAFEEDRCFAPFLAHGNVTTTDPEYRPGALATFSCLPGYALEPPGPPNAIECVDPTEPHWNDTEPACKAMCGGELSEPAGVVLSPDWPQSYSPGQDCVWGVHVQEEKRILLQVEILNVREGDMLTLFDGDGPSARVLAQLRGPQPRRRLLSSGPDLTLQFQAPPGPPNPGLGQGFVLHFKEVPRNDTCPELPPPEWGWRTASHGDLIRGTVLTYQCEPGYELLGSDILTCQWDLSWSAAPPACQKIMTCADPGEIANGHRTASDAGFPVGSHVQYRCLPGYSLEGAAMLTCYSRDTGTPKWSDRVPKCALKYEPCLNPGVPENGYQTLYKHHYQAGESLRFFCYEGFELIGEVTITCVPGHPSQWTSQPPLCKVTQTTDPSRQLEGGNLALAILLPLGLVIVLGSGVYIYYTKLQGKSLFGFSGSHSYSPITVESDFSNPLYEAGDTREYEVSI
# UniProt Q8N6M0: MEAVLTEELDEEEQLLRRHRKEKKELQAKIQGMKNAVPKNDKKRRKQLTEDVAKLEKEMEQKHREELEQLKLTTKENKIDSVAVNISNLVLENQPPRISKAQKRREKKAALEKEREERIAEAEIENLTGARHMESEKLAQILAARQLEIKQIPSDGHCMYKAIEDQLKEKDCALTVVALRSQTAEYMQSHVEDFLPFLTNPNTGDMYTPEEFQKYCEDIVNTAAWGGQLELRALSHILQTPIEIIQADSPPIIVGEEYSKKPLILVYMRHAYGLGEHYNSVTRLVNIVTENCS
# UniProt Q9NRZ9: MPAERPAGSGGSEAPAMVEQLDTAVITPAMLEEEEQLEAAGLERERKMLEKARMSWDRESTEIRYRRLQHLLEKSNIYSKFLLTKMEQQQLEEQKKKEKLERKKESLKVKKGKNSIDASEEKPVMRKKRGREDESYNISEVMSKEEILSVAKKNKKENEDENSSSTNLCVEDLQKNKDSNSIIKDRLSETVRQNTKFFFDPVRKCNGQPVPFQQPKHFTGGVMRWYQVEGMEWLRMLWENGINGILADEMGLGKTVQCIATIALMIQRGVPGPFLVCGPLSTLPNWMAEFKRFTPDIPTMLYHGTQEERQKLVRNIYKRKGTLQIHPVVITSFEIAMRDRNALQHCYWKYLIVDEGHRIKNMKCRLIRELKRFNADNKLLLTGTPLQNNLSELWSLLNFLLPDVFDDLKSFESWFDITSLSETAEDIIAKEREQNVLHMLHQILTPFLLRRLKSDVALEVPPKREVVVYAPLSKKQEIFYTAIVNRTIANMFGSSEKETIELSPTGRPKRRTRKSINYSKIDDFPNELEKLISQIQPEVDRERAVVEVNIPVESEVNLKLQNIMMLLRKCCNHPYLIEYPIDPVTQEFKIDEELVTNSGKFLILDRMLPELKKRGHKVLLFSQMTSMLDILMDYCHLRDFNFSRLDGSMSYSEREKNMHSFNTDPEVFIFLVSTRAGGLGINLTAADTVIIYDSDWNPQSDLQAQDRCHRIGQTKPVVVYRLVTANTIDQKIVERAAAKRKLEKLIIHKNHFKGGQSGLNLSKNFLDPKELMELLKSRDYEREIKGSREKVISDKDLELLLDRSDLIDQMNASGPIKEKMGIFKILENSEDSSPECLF
# UniProt Q9NQC1, whole entry: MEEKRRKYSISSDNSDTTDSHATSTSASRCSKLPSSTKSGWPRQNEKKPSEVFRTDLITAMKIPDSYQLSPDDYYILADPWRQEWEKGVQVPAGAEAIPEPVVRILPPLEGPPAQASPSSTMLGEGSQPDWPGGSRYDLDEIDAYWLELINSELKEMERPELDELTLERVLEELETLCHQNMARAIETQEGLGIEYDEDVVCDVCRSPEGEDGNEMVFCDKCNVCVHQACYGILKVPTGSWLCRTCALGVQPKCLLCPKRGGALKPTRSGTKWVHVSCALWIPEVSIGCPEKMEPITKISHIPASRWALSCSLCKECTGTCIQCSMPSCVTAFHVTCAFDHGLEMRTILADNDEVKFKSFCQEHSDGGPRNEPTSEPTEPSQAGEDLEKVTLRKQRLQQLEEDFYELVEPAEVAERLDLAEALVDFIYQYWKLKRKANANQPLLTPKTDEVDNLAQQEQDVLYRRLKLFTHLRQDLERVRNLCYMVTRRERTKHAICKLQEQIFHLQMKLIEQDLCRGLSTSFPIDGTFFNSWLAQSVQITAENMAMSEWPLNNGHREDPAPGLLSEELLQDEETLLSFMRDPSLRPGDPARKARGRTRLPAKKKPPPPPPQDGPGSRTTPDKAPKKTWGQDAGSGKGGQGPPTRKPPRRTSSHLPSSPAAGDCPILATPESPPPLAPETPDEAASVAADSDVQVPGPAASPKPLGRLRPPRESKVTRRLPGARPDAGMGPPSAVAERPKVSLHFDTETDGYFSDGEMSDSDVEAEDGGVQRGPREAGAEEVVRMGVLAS
# ± gives the standard deviation of the averaged measurements. The entries are a selection whose mix differs from that of the whole data set.
# Compound: Nc1ncnc2c1ncn2[C@@H]1O[C@H](COP(=O)(O)OP(=O)(O)OP(=O)(O)O)[C@@H](O)[C@H]1O [adenosine triphosphate]
# Assay: NP40-soluble protein abundance relative to vehicle (solubility fold change) (ratio); higher = more soluble protein in presence of ATP
# Outline: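 Values are fold changes against the detergent-processed vehicle, based on vsn-normalised intensities. Jurkat crude lysate was treated at eight concentrations from 0.1 to 10 mM (10 min at room temperature, then 3 min at 37 °C), solubilised with 0.8% NP40 and benzonase, ultracentrifuged and analysed by TMT-labelled LC-MS/MS over three independent experiments.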
Target,NP40-soluble protein abundance (concentration: 1mM),NP40-soluble protein abundance (concentration: 2mM),NP40-soluble protein abundance (concentration: 4mM),NP40-soluble protein abundance (concentration: 6mM),NP40-soluble protein abundance (concentration: 8mM),NP40-soluble protein abundance (concentration: 10mM)
A0A087WT20|Q9NV06 (UniProt Q9NV06),1.05 ± 0.061,1.04 ± 0.12,1.04 ± 0.13,0.993 ± 0.086,1 ± 0.1,1.05 ± 0.045
A0A087WUU9|P47974 (UniProt P47974),1.05 ± 0.1,1.02 ± 0.09,1.07 ± 0.08,1.04 ± 0.044,0.968 ± 0.054,0.984 ± 0.063
A0A0A0MRV0|Q9P2E9 (UniProt Q9P2E9),0.962 ± 0.083,0.939 ± 0.035,0.946 ± 0.066,1 ± 0.085,0.979 ± 0.037,0.929 ± 0.054
A0A0A0MSH9|Q86WJ1 and related entries (UniProt Q86WJ1),1.01 ± 0.021,1 ± 0.026,0.992 ± 0.021,0.985 ± 0.049,1.01 ± 0.029,0.987 ± 0.026
A0A0C4DGZ1|Q8N5P1 (UniProt Q8N5P1),1.04 ± 0.08,1.12 ± 0.086,1.16 ± 0.097,1.31 ± 0.12,1.26 ± 0.11,1.33 ± 0.068
A0A087WXS7|K7ERW9 and related entries (UniProt O43681),1.03 ± 0.12,0.972 ± 0.024,0.949 ± 0.031,0.924 ± 0.08,0.915 ± 0.02,0.947 ± 0.03
A0A096LP75|C4AMC7 and related entries (UniProt Q6VEQ5+C4AMC7),0.904 ± 0.033,0.9664 ± 0.0048,0.997 ± 0.066,0.961 ± 0.089,0.936 ± 0.057,0.895 ± 0.018
A0A087X188|F5H0W4 and related entries (UniProt Q9UBW5),0.979 ± 0.011,0.973 ± 0.018,0.946 ± 0.021,0.954 ± 0.012,0.955 ± 0.051,0.939 ± 0.021
A0A0C4DFL8|F5GX28 and related entries (UniProt O94953),0.993 ± 0.067,0.99 ± 0.019,0.989 ± 0.011,0.976 ± 0.038,0.969 ± 0.067,0.997 ± 0.049
A0A087WVP4|A0A087X1R1|P53814 and related entries (UniProt P53814),1.01 ± 0.11,1.03 ± 0.2,1.09 ± 0.13,1.05 ± 0.032,0.999 ± 0.089,1.16 ± 0.064
A0A087WY85|P61077 and related entries (UniProt P61077),0.977 ± 0.028,0.942 ± 0.035,0.905 ± 0.026,0.925 ± 0.12,0.952 ± 0.025,0.914 ± 0.054
A0A087X0H9|Q5T8P6 and related entries (UniProt Q5T8P6),1.19 ± 0.057,1.224 ± 0.01,1.2 ± 0.03,1.24 ± 0.02,1.187 ± 0.0065,1.22 ± 0.021
A0A0B4J1W0|F5GY88 and related entries (UniProt O75448),1.08 ± 0.025,1.027 ± 0.0038,1.01 ± 0.019,0.993 ± 0.092,1.09 ± 0.067,1.04 ± 0.074
A0A0B4J1W3|Q9BXJ9 (UniProt Q9BXJ9),1.04 ± 0.049,1.02 ± 0.047,1.01 ± 0.035,1 ± 0.07,1.03 ± 0.03,1.01 ± 0.039
A0A0C4DG44|O43464 and related entries (UniProt O43464),0.997 ± 0.037,1.01 ± 0.035,1.026 ± 0.0017,0.989 ± 0.035,1.01 ± 0.017,0.971 ± 0.025
A0A0A0MRJ6|C9J0F2 and related entries (UniProt P22061),0.962 ± 0.061,0.982 ± 0.044,0.935 ± 0.025,0.9696 ± 0.005,0.958 ± 0.026,0.918 ± 0.017
A0A0D9SGJ6|J3KQV8 and related entries (UniProt O43426),1.04 ± 0.05,1.05 ± 0.035,1.03 ± 0.067,1.02 ± 0.044,1.01 ± 0.052,1.03 ± 0.029
A0A0A0MS41|Q9BWM7 (UniProt Q9BWM7),0.977 ± 0.026,0.996 ± 0.019,1.02 ± 0.035,0.996 ± 0.063,0.9784 ± 0.0083,0.998 ± 0.064
A0A087WZ30|A0A087X072|O94761 (UniProt O94761),1.08 ± 0.27,0.925 ± 0.1,0.976 ± 0.041,0.919 ± 0.22,1 ± 0.028,1.1 ± 0.24
A0A0A0MT72|Q9BSQ5 and related entries (UniProt Q9BSQ5),0.989 ± 0.12,1.01 ± 0.059,1.05 ± 0.039,0.992 ± 0.092,1.04 ± 0.082,1.05 ± 0.1
A0A0A0MS52|Q13555-2|Q13555-8|Q13555-9 (UniProt Q13555),1.02 ± 0.034,1.02 ± 0.031,1.07 ± 0.012,1.11 ± 0.038,1.09 ± 0.057,1.06 ± 0.043
A0A087WUC6|E9PI68 and related entries (UniProt Q15005),0.928 ± 0.064,0.952 ± 0.041,0.943 ± 0.034,0.972 ± 0.024,0.935 ± 0.044,0.927 ± 0.026
A0A087WTJ2|Q8WWP7 (UniProt Q8WWP7),1.02 ± 0.056,1.02 ± 0.048,1.01 ± 0.042,0.96 ± 0.12,1.01 ± 0.049,0.996 ± 0.044
A0A087WU02|F8VPA6 and related entries (UniProt Q96RQ1),1.01 ± 0.1,1.03 ± 0.036,1.06 ± 0.15,0.962 ± 0.21,1.06 ± 0.088,0.9605 ± 0.0044
A0A0A0MR87|E9PSF2 and related entries (UniProt Q15468),0.885 ± 0.01,0.866 ± 0.098,0.916 ± 0.059,0.765 ± 0.1,0.865 ± 0.018,0.8448 ± 0.0015

Target,NP40-soluble protein abundance (concentration: 1mM),NP40-soluble protein abundance (concentration: 2mM),NP40-soluble protein abundance (concentration: 4mM),NP40-soluble protein abundance (concentration: 6mM),NP40-soluble protein abundance (concentration: 8mM),NP40-soluble protein abundance (concentration: 10mM)
A0A0A0MTH9|O14981 (UniProt O14981),1 ± 0.014,1 ± 0.029,0.989 ± 0.018,0.9716 ± 0.0085,0.988 ± 0.016,0.991 ± 0.029
A0A0C4DG33|H7BZH3 and related entries (UniProt O43933),1.1 ± 0.086,1.11 ± 0.064,1.18 ± 0.029,1.09 ± 0.041,1.17 ± 0.077,1.14 ± 0.067
A0A087X1Z3|Q9UL46 (UniProt Q9UL46),0.932 ± 0.096,0.896 ± 0.011,0.934 ± 0.012,0.9 ± 0.099,0.953 ± 0.01,0.82 ± 0.096
A0A087WYM3|Q8IXJ6 and related entries (UniProt Q8IXJ6),0.881 ± 0.023,0.925 ± 0.045,0.911 ± 0.022,0.895 ± 0.064,0.895 ± 0.035,0.946 ± 0.041
A0A0C4DG78|M0R3C6 and related entries (UniProt Q8TBC5),0.959 ± 0.043,0.996 ± 0.15,0.93 ± 0.031,0.928 ± 0.017,0.884 ± 0.065,0.923 ± 0.065
A0A0A0MQR2|Q9BY42 (UniProt Q9BY42),0.958 ± 0.045,0.966 ± 0.021,0.937 ± 0.023,1.01 ± 0.026,0.935 ± 0.018,0.9485 ± 0.0059
A0A087WYL5|Q6UXD5-3|Q6UXD5-5|Q6UXD5-6 (UniProt Q6UXD5),0.907 ± 0.056,0.871 ± 0.12,0.9 ± 0.028,0.884 ± 0.067,0.951 ± 0.018,0.939 ± 0.065
A0A087X0W9|Q8N6M0 (UniProt Q8N6M0),0.933 ± 0.064,0.927 ± 0.051,0.92 ± 0.036,0.97 ± 0.018,0.908 ± 0.052,0.902 ± 0.044
A0A087WWC6|P01848 and related entries (UniProt Q6P4I7+P01848),0.916 ± 0.029,0.878 ± 0.027,0.883 ± 0.078,0.941 ± 0.048,0.874 ± 0.058,0.862 ± 0.025
A0A0A0MTJ9|A0A0R4J2G3|Q6PIU2 and related entries (UniProt Q6PIU2),0.998 ± 0.025,1.04 ± 0.031,1.01 ± 0.02,1 ± 0.076,0.951 ± 0.043,1 ± 0.057
A0A087X0M1|H0YAA8 and related entries (UniProt Q9H204),0.902 ± 0.14,0.882 ± 0.21,0.907 ± 0.16,0.855 ± 0.22,0.909 ± 0.12,0.786 ± 0.22
A0A087WXZ7|K7EIX2 and related entries (UniProt Q6AI08),1 ± 0.069,1.02 ± 0.027,1.04 ± 0.08,1.01 ± 0.086,0.94 ± 0.088,0.994 ± 0.033
A0A0A0MQT4|Q5QP82 and related entries (UniProt Q5QP82),1.05 ± 0.071,1.03 ± 0.097,1.07 ± 0.14,1.02 ± 0.1,1.04 ± 0.12,1.08 ± 0.14
A0A0C4DGH3|Q9Y6R0 (UniProt Q9Y6R0),1.27 ± 0.13,1.27 ± 0.011,1.21 ± 0.089,1.19 ± 0.1,1.23 ± 0.071,1.23 ± 0.13
A0A087WXR7|Q5TBB1 (UniProt Q5TBB1),0.957 ± 0.034,0.943 ± 0.01,0.903 ± 0.02,0.966 ± 0.028,0.914 ± 0.049,0.911 ± 0.025
A0A087WUL7|Q96F24 (UniProt Q96F24),1.01 ± 0.094,0.977 ± 0.083,1.01 ± 0.048,1 ± 0.047,0.978 ± 0.069,0.9628 ± 0.009
A0A075B6F9|Q9Y314 (UniProt Q9Y314),0.954 ± 0.013,0.9543 ± 0.0055,0.955 ± 0.021,0.996 ± 0.012,0.9895 ± 0.0073,0.991 ± 0.019
A0A0B4J1V9|Q9NRZ9 and related entries (UniProt Q9NRZ9),1.19 ± 0.037,1.209 ± 0.0039,1.21 ± 0.028,1.21 ± 0.034,1.25 ± 0.022,1.22 ± 0.033
A0A087WTW5|Q9UKL3 (UniProt Q9UKL3),1.02 ± 0.03,1.04 ± 0.056,1.06 ± 0.08,1.14 ± 0.11,1.08 ± 0.055,1.12 ± 0.05
A0A087X0Q1|Q7Z739 (UniProt Q7Z739),0.971 ± 0.027,0.988 ± 0.038,0.994 ± 0.05,1.01 ± 0.034,0.967 ± 0.043,0.998 ± 0.019
A0A0A0MTR2|Q8N543 (UniProt Q8N543),1.02 ± 0.09,0.991 ± 0.084,0.982 ± 0.083,0.971 ± 0.11,1.01 ± 0.051,0.972 ± 0.084
A0A0C4DFN8|P22570 and related entries (UniProt P22570),1.03 ± 0.0078,1.03 ± 0.017,1.03 ± 0.031,1.03 ± 0.06,1.01 ± 0.064,1.02 ± 0.038
A0A0C4DFT8|G3XAA4 and related entries (UniProt Q9NQC1),1.221 ± 0.012,1.35 ± 0.053,1.25 ± 0.15,1.43 ± 0.12,1.276 ± 0.011,1.38 ± 0.015
A0A075B716|H0YN88 and related entries (UniProt P08708),0.881 ± 0.056,0.853 ± 0.083,0.811 ± 0.089,0.782 ± 0.11,0.743 ± 0.1,0.78 ± 0.061
A0A0A0MQW0|A0A0A0MR39 (UniProt Q9P2K5),1.05 ± 0.054,1.05 ± 0.041,1.08 ± 0.047,1.12 ± 0.047,1.1 ± 0.016,1.11 ± 0.033

# Record cards, as listed above.
# A0A0A0MTH9|O14981 (UniProt O14981) reads NP40-soluble protein abundance (concentration: 1mM): 1 ± 0.014; NP40-soluble protein abundance (concentration: 2mM): 1 ± 0.029; NP40-soluble protein abundance (concentration: 4mM): 0.989 ± 0.018; NP40-soluble protein abundance (concentration: 6mM): 0.9716 ± 0.0085; NP40-soluble protein abundance (concentration: 8mM): 0.988 ± 0.016; NP40-soluble protein abundance (concentration: 10mM): 0.991 ± 0.029
# A0A0B4J1V9|Q9NRZ9 and related entries (UniProt Q9NRZ9) reads NP40-soluble protein abundance (concentration: 1mM): 1.19 ± 0.037; NP40-soluble protein abundance (concentration: 2mM): 1.209 ± 0.0039; NP40-soluble protein abundance (concentration: 4mM): 1.21 ± 0.028; NP40-soluble protein abundance (concentration: 6mM): 1.21 ± 0.034; NP40-soluble protein abundance (concentration: 8mM): 1.25 ± 0.022; NP40-soluble protein abundance (concentration: 10mM): 1.22 ± 0.033
